Assay results published in doi:10.1101/2024.10.21.619550.
Results are given in words; binding and its absence hold for the method and conditions named. In cells and extracts the contact can be indirect. Some results given as binding are weak or reduced against the parent protein; the word gives no strength.

By UniProt entry, the sequences of proteins in these tests, tags left out.
UniProt P46937: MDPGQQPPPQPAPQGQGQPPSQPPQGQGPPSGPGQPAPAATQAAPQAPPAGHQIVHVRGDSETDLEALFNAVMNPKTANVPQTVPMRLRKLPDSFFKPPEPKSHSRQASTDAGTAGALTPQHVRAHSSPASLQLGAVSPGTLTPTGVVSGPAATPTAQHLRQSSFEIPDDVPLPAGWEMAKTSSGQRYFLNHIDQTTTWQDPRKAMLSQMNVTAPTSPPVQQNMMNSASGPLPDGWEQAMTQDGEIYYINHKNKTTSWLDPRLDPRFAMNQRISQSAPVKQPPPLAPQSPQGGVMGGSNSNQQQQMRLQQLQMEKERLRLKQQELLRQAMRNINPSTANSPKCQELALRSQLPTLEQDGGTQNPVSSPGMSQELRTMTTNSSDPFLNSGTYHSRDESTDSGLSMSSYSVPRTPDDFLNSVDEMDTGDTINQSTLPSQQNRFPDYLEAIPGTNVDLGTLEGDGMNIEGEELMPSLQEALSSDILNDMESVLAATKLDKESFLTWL
UniProt P31946: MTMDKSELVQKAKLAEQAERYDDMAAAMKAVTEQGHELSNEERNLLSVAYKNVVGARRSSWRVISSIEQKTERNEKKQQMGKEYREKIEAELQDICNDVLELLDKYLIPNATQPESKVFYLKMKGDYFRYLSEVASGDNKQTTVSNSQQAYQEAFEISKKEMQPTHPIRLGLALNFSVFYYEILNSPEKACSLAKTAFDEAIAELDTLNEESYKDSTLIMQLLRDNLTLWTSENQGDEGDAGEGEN

How the values were obtained:
p-YAP(s127) = p-YAP(s127) (UniProt P46937); experiment: co-IP
[1] = target: 14-3-3β protein (YWHAB) (human (endogenous in HUVECs)) (UniProt P31946); experiment: co-IP

binding (p-YAP(s127)): no binding
binding [1]: binds
B1: zyxin (protein, UniProt Q15942 1-572)
chain: MAAPRPSPAISVSVSAPAFYAPQKKFGPVVAPKPKVNPFRPGDSEPPPAPGAQRAQMGRVGEIPPPPPEDFPLPPPPLAGDGDDAEGALGGAFPPPPPPIEESFPPAPLEEEIFPSPPPPPEEEGGPEAPIPPPPQPREKVSSIDLEIDSLSSLLDDMTKNDPFKARVSSGYVPPPVATPFSSKSSTKPAAGGTAPLPPWKSPSSSQPLPQVPAPAQSQTQFHVQPQPQPKPQVQLHVQSQTQPVSLANTQPRGPPASSPAPAPKFSPVTPKFTPVASKFSPGAPGGSGSQPNQKLGHPEALSAGTGSPQPPSFTYAQQREKPRVQEKQHPVPPPAQNQNQVRSPGAPGPLTLKEVEELEQLTQQLMQDMEHPQRQNVAVNELCGRCHQPLARAQPAVRALGQLFHIACFTCHQCAQQLQGQQFYSLEGAPYCEGCYTDTLEKCNTCGEPITDRMLRATGKAYHPHCFTCVVCARPLEGTSFIVDQANRPHCVPDYHKQYAPRCSVCSEPIMPEPGRDETVRVVALDKNFHMKCYKCEDCGKPLSIEADDNGCFPLDGHVLCRKCHTARAQT
